Source: patent US20210154279A1
These are yes or no findings as the source states them, for the method shown. In cells and extracts the contact can be indirect. Some binding calls cover weakened binding; strength is not graded here.

Biological target: HLA-B*0702 (human)
Assay: peptide eluted from W6/32-purified MHC class I of CRC tumour, IMAC, LC-MS/MS; allele as printed in Table 4

B1: TTC22 phosphopeptide APRDRRAVsF (peptide)
peptide: APRDRRAVSF
modifications: phosphoserine at position 9 (lowercase s)
In the case of B1, the binding is reported as “binds”.
